Patent publication US20260167693A1
Results are given in words; binding and its absence hold for the method and conditions named. Some results given as binding are weak or reduced against the parent protein; the word gives no strength. Tags and fused reporters may be left off the sequences shown.

By UniProt entry, the sequences of proteins in these tests, tags left out. Residues count along the entry.
UniProt P40238, residues 26-635: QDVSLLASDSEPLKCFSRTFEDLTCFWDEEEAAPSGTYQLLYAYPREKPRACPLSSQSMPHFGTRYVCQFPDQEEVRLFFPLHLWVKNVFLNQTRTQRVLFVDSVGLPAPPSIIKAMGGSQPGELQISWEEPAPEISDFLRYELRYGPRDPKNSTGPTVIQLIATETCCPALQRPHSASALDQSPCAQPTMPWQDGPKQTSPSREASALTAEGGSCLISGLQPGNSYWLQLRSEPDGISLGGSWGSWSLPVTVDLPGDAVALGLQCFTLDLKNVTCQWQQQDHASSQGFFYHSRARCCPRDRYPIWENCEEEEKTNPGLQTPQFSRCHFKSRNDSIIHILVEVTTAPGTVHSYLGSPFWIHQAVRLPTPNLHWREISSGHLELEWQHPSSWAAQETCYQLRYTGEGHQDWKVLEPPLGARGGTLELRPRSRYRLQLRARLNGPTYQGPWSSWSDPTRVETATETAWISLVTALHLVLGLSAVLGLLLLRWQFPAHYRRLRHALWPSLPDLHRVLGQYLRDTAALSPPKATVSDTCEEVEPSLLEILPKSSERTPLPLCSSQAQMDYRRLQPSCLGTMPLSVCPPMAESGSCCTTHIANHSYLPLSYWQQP

Target: human MPL (Thrombopoietin receptor) (human) (UniProt P40238)
Assay: scFv-NLuc supernatant on cells, 4 C 1 h, NLuc activity

B1: 161-GGSG-NLuc-AcV5 (scFv, not shown: large carriers)
scFv: DIQMTQSSSSFSVSLGDRVTITCMASEDIYIRLAWYQQKPGNAPRLLISAATSLETGVPSRFSGSGSGKDYTLSITSLQTEDVGTYYCQQYWSSPWTFGGGTKLEINGGGGSGGGGSGGGGSDVQLQESGPGLVKPSQSLSLTCTVTGYSITSDYTWNWIRQFPGNKLEWMGYITYSGSTSYNPSLKSRNSITRDTSKNQFFLQLNSVTTEDTATYYCARLGRRYTMDYWGQGTSVTVSSGGSG
binding: binds
